This is one part of the list.
Compound: Cc1cc(ccc1-c1ccccc1)C(=O)N1CCCN(CC1)C(=O)CCl [compound 10]
Assay: probe-labelled cysteine peptide fold change vs DMSO (competition) (log2 fold change); higher = less target engagement (more negative = stronger competition)
Details: THP-1, incubation time: 4 h
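Further: competitive profiling in live THP-1 cells: cysteine peptides tagged with an iodoacetamide desthiobiotin (IA-DTB) probe, intensity after compound treatment relative to DMSO-treated cells.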

The chains behind the UniProt entries cited, without tags or fusion partners. Where a name states a change or a piece, a line headed by the entry shows the natural chain unless it says otherwise.
UniProt Q9H0N5: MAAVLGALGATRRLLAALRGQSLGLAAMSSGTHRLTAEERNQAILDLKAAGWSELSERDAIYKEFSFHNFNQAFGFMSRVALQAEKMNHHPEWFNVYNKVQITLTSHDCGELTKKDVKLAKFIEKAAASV
UniProt Q9NR12, whole entry, looked up: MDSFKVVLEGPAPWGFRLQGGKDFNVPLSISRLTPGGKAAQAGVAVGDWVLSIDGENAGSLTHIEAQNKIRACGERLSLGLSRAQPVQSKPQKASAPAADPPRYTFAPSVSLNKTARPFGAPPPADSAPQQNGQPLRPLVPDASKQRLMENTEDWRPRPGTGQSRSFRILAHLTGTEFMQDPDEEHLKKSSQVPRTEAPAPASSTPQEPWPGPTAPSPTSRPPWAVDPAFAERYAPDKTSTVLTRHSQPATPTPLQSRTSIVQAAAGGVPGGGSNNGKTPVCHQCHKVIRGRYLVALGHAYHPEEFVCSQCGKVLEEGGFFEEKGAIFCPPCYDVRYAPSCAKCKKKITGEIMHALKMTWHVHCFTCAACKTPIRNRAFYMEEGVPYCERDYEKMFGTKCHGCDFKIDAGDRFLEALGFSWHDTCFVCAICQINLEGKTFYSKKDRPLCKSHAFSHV
UniProt Q15084: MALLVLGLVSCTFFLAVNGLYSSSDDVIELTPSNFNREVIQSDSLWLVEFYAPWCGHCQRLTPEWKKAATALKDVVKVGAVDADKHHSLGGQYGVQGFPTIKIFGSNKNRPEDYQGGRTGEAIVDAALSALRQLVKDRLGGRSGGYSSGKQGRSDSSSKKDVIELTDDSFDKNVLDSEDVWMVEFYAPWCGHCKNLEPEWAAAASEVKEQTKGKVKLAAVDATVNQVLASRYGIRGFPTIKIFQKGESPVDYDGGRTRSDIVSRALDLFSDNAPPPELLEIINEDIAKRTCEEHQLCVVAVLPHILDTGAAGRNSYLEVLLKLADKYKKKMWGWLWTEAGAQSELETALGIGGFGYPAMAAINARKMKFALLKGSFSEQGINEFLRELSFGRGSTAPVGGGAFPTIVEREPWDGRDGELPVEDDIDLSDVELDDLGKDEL
UniProt P05165: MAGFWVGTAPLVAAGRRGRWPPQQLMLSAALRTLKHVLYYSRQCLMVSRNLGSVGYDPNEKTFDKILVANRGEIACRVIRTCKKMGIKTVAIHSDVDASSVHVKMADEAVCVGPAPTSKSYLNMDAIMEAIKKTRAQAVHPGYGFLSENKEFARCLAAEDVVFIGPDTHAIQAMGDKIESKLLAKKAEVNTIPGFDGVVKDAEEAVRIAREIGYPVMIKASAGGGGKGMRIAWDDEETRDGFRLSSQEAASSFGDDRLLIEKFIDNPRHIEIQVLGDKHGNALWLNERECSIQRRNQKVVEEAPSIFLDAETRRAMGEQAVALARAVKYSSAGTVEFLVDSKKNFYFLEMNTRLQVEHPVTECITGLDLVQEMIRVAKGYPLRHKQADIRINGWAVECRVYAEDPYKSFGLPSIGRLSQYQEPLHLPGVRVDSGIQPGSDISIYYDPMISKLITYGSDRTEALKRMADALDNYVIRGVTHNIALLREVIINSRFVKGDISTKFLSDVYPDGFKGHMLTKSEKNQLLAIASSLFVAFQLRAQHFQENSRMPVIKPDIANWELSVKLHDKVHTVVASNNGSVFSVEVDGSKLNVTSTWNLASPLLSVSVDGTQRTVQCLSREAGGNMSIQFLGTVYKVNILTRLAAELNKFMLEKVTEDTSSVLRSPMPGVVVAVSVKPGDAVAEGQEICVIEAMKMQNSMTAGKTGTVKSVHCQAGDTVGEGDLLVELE
UniProt Q9HBH1: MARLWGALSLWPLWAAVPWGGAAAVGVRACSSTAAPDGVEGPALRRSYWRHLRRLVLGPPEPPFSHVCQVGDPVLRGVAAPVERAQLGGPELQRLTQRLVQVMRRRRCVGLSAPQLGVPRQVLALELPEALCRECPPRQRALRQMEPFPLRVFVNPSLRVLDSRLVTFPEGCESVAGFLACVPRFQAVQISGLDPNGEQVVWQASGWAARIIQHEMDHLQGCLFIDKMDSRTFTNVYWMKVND
UniProt Q15365, whole entry, looked up: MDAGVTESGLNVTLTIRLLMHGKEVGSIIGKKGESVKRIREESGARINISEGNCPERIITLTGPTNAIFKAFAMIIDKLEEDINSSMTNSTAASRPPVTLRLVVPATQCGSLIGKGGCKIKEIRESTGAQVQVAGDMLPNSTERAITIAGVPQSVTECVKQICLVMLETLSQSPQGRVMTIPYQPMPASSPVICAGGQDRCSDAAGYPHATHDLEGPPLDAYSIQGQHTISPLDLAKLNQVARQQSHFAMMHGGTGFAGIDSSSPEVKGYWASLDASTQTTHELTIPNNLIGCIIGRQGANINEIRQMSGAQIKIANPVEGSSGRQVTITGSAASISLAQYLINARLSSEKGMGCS
UniProt Q86U86, whole entry, looked up: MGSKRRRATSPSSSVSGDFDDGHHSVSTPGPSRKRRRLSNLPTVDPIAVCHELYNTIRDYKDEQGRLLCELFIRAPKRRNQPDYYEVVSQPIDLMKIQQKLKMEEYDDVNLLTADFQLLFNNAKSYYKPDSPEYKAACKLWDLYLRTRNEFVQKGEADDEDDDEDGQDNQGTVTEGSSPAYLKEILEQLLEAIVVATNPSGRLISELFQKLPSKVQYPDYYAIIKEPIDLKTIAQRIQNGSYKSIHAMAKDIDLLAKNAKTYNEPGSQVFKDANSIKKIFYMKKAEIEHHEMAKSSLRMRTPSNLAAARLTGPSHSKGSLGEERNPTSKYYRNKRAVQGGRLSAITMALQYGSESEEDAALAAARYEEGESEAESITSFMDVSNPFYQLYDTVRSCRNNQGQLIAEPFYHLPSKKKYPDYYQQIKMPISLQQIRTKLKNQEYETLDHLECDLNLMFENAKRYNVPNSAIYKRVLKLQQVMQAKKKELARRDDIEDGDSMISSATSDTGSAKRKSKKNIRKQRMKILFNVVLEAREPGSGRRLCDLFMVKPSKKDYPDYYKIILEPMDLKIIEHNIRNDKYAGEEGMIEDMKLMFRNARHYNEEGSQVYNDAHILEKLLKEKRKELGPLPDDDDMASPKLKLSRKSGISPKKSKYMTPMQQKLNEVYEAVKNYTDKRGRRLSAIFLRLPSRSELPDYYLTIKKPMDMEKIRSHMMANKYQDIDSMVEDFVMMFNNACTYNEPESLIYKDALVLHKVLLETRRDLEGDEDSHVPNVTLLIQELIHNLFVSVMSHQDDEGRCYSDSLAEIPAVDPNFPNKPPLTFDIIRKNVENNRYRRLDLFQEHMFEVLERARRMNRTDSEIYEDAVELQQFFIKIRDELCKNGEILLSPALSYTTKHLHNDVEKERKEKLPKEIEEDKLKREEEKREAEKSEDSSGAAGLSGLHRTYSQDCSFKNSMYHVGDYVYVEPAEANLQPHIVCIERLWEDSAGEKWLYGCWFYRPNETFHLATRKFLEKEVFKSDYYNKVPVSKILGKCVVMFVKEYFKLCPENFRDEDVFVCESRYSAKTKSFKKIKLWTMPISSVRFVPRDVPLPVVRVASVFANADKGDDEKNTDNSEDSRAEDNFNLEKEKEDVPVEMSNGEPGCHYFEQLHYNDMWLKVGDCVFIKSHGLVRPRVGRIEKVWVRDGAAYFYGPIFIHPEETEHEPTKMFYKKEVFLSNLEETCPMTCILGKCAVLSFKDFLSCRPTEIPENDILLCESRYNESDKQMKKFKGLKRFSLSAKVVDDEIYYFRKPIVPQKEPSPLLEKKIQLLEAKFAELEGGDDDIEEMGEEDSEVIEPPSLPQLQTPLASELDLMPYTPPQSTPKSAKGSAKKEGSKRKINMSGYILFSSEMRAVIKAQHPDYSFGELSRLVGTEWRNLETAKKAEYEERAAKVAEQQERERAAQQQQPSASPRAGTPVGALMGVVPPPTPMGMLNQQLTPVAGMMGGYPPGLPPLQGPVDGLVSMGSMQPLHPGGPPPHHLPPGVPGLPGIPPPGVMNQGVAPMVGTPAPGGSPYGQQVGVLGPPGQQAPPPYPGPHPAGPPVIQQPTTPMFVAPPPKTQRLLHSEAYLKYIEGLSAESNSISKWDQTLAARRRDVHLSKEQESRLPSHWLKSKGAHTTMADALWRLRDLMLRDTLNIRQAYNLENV
UniProt Q14690: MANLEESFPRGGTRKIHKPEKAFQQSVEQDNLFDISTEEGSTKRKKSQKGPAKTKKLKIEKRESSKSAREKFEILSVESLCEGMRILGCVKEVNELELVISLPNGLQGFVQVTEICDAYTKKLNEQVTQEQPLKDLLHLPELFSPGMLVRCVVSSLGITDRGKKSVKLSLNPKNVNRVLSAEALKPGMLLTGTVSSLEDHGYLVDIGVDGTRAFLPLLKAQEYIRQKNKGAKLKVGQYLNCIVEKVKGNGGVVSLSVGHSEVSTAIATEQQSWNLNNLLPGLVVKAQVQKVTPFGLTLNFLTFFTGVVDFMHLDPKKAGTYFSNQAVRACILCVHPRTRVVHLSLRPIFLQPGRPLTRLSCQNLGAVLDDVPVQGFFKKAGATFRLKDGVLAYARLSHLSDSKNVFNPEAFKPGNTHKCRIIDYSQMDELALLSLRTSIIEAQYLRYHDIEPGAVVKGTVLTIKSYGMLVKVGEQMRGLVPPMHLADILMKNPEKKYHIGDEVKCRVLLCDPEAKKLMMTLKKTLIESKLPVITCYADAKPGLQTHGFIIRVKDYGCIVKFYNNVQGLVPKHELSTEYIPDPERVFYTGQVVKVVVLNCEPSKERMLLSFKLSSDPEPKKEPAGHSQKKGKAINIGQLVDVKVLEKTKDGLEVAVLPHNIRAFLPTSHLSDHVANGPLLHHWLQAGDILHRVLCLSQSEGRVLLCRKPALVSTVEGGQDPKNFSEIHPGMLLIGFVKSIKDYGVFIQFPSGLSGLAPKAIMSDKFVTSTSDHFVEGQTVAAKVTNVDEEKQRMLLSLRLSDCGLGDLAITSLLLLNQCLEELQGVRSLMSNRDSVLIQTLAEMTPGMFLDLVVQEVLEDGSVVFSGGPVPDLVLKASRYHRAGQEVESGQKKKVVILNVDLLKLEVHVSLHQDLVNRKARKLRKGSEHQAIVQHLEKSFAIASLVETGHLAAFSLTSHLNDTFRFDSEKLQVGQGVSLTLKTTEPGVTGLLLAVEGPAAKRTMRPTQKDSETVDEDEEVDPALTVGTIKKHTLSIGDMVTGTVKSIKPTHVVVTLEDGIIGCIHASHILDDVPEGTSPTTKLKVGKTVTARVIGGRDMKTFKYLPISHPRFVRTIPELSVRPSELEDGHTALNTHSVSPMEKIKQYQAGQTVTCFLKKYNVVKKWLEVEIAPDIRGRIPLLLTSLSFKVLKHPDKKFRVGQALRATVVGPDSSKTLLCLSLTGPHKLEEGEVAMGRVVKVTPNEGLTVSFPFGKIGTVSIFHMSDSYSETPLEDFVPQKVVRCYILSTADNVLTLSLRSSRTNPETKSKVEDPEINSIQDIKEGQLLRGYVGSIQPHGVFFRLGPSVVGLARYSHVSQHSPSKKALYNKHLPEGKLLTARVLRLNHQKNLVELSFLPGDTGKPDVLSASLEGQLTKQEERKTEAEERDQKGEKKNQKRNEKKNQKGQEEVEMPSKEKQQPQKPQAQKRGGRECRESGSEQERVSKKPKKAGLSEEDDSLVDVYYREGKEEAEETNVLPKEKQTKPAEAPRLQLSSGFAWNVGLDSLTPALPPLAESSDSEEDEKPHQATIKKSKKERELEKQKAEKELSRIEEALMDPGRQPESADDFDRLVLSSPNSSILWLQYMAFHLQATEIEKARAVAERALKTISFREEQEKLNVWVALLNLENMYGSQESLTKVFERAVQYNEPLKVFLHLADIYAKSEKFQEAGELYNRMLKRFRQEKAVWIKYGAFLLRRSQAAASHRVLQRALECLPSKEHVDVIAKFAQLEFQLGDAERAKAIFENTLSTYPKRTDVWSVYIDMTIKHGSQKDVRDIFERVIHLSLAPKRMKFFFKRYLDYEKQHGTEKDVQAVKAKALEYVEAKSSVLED
UniProt Q14554: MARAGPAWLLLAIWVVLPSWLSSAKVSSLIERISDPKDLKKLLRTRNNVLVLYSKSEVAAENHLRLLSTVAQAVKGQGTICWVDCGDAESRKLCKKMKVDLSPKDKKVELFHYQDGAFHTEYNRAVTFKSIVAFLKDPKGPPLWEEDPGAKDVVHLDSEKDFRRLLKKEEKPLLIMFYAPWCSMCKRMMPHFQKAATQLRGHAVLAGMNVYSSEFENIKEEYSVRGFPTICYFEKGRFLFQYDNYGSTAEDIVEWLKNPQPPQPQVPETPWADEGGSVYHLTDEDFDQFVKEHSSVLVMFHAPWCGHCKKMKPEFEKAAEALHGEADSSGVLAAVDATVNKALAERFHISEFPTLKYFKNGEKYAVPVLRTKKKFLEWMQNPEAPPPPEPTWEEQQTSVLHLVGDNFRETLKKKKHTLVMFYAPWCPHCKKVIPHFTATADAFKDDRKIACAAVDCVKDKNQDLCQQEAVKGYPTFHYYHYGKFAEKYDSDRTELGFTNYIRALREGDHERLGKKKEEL

| Target | probe-labelled cysteine peptide fold change (10 µM) | probe-labelled cysteine peptide fold change (50 µM) |
| --- | --- | --- |
| PCID2_Q5JVF3_152_VCASDTR (UniProt Q5JVF3) | 0.19 | 0.0189 |
| PCBD2_Q9H0N5_109_VQITLTSHDCGELTKK (UniProt Q9H0N5) | 0.133 | -0.439 |
| PAXX_Q9BUH6_80_AACEQQAVALTLQEDR (UniProt Q9BUH6) | 0.0589 | 0.192 |
| PCTP_Q9UKL6_93_ELYEQECNGETVVYWEVK (UniProt Q9UKL6) | 0.0726 | 0.0148 |
| PCK2_Q16822_151_AVDERFPGCMQGR (UniProt Q16822) | -0.169 | -0.508 |
| PDLIM7_Q9NR12_282+285_TPVCHQCHK (UniProt Q9NR12) | -0.0326 | -0.479 |
| PDHB_P11177_161+169_GPNGASAGVAAQHSQCFAAWYGHCPGLK (UniProt P11177) | -0.208 | -0.713 |
| PCGF5_Q86SE9_42+53_TCIVQHFEDSNDCPR (UniProt Q86SE9) | -0.044 | -0.597 |
| PARP8_Q8N3A8_27_DCLFADFR (UniProt Q8N3A8) | 0.0942 | 0.203 |
| PDIA6_Q15084_297_TCEEHQLCVVAVLPHILDTGAAGR (UniProt Q15084) | 0.011 | -0.0194 |
| PDCD6IP_Q8WUM4_40_FIQQTYPSGGEEQAQYCR (UniProt Q8WUM4) | 0.232 | 0.186 |
| PDXDC1_Q6P996_361_HACQLSQR (UniProt Q6P996) | 0.0606 | -0.0896 |
| PDLIM7_Q9NR12_388_AFYMEEGVPYCERDYEK (UniProt Q9NR12) | -0.134 | -0.663 |
| PCCA_P05165_363_LQVEHPVTECITGLDLVQEMIR (UniProt P05165) | 0.011 | 0.316 |
| PDF_Q9HBH1_172+181_LVTFPEGCESVAGFLACVPR (UniProt Q9HBH1) | -0.074 | 0.0366 |
| PCBP1_Q15365_194_VMTIPYQPMPASSPVICAGGQDR (UniProt Q15365) | 0.168 | 0.0443 |
| PDCD2L_Q9BRP1_49_LGGIPDALPTVAAPRPVCQR (UniProt Q9BRP1) | -0.457 | -0.894 |
| PDS5A_Q29RF7_486_CLYYLYASLDPNAVK (UniProt Q29RF7) | -0.015 | -0.0122 |

Given as tab-separated lines: part of the list above
Target	probe-labelled cysteine peptide fold change (10 µM)	probe-labelled cysteine peptide fold change (50 µM)
PCCA_P05165_363_LQVEHPVTECITGLDLVQEMIR (UniProt P05165)	0.011	0.316
PDF_Q9HBH1_172+181_LVTFPEGCESVAGFLACVPR (UniProt Q9HBH1)	-0.074	0.0366
PCBP1_Q15365_194_VMTIPYQPMPASSPVICAGGQDR (UniProt Q15365)	0.168	0.0443

The results go on.

| Target | probe-labelled cysteine peptide fold change (10 µM) | probe-labelled cysteine peptide fold change (50 µM) |
| --- | --- | --- |
| PDCD4_Q53EL6_350_EYLLSGDISEAEHCLK (UniProt Q53EL6) | 0.187 | 0.242 |
| PCBP3_P57721_86_INISEGNCPER (UniProt P57721) | -0.122 | -0.352 |
| PBRM1_Q86U86_1228_EVFLSNLEETCPMTCILGK (UniProt Q86U86) | -0.179 | 0.0923 |
| PAXIP1_Q6ZW49_997_AIVECAGGK (UniProt Q6ZW49) | -0.0036 | -0.213 |
| PCNT_O95613_1252_ECEQPIRR (UniProt O95613) | 0.143 | -0.349 |
| PBX1_P40424_172_YEQACNEFTTHVMNLLR (UniProt P40424) | 0.0689 | 0.267 |
| PDCD11_Q14690_361_LSCQNLGAVLDDVPVQGFFK (UniProt Q14690) | -0.3 | -1.02 |
| PDIA6_Q15084_193_NVLDSEDVWMVEFYAPWCGHCK (UniProt Q15084) | -0.216 | 0.0693 |
| PCM1_Q15154_582_TVNSNCEINNR (UniProt Q15154) | -0.438 | -0.271 |
| PDE12_Q6L8Q7_268+277_ELESVCVVEAGPGTCTFDHR (UniProt Q6L8Q7) | 0.0485 | 0.0303 |
| PDCD11_Q14690_1218_TLLCLSLTGPHK (UniProt Q14690) | -0.0371 | 0.106 |
| PBRM1_Q86U86_450_NQEYETLDHLECDLNLMFENAK (UniProt Q86U86) | -0.043 | -0.0946 |
| PCNA_P12004_135_LMDLDVEQLGIPEQEYSCVVK (UniProt P12004) | 0.15 | -0.109 |
| PCMT1_P22061_43_CNPYMDSPQSIGFQATISAPHMHAYALELLFDQLHEGAK (UniProt P22061) | -0.0496 | -0.164 |
| PDS5B_Q9NTI5_333_FNDIHVPIRLECVK (UniProt Q9NTI5) | 0.0355 | -0.279 |
| PDPR_Q8NCN5_598_SFFMISPTDQQVHCWAWLK (UniProt Q8NCN5) | -0.226 | -0.0911 |
| PDIA5_Q14554_451_IACAAVDCVK (UniProt Q14554) | -0.117 | -0.18 |
